Test results as given in US12044684B2, “Methods for diagnosing an autistic spectrum disorder” (QATAR UNIVERSITY, priority 2018, dated 2024).

Experiment: Glycated, oxidized and nitrated free adducts and amino acids in plasma ultrafiltrate by LC-MS/MS
Design: species or system human
Conditions: children with ASD with respect to healthy controls

Structure (SMILES)	plasma conventional amino acid metabolome, change
N=C(N)NCCC[C@H](N)C(=O)O [arg, arginine]	increases
N[C@@H](CCC(=O)O)C(=O)O [glu, glutamate]	increases
C[C@@H](O)[C@H](N)C(=O)O [thr, threonine]	increases
N[C@@H](Cc1c[nH]c2ccccc12)C(=O)O [trp, tryptophan]	decrease
